The other results are listed elsewhere or left out.
Experiments:
Assay in all cases: log2 fold change, soluble protein after heating vs DMSO (PISA); higher = thermal stabilisation; K562 cells, 10 uM, 30 min; active = over 0.2 and 3.5 SD of the protein, either way, in both replicates (recomputed)
bafetinib = compound: Cc1ccc(NC(=O)c2ccc(CN3CC[C@H](N(C)C)C3)c(C(F)(F)F)c2)cc1Nc1nccc(-c2cncnc2)n1 [bafetinib]
Summary of the method: (§1)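 K562 cells at 2×10^6 cells/mL were treated with 10 μM compound for 30 min. Aliquots were heated for 3 min across 48°C-58°C, pooled, and extracted in PBS with 0.5% NP-40 at 4°C; soluble protein was the supernatant after 21,000xg for 90 min. Soluble protein was quantified by TMTpro 16plex LC-MS/MS with channel sums equalised, and reported as log2 fold change in thermal stability against DMSO controls, with values from duplicates.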

Protein sequences, listed by entry. Tags and fused reporters are not part of them. Lines headed by an entry give the natural chain unless they say otherwise; changes in a name come on top.
UniProt O95817, whole entry, looked up: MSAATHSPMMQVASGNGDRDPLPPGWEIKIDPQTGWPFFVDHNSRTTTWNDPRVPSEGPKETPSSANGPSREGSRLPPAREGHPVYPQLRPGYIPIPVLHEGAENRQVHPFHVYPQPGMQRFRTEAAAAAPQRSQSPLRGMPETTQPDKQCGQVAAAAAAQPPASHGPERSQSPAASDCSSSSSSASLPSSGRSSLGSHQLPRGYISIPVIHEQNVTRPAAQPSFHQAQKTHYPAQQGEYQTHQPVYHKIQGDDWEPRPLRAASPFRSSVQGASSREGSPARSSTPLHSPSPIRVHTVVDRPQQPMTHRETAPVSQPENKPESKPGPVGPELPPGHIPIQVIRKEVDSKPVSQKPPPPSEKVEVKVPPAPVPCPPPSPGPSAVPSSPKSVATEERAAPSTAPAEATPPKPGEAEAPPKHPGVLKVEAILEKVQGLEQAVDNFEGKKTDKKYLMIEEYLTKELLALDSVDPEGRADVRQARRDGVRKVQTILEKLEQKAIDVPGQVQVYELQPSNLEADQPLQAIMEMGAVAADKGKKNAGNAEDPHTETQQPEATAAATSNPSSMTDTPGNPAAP
UniProt Q92934: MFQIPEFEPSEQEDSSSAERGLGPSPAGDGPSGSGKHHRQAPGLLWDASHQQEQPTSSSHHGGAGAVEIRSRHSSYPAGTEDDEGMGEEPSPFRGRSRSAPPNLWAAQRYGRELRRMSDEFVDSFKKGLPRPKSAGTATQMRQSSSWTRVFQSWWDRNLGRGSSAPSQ
UniProt Q8NBF6: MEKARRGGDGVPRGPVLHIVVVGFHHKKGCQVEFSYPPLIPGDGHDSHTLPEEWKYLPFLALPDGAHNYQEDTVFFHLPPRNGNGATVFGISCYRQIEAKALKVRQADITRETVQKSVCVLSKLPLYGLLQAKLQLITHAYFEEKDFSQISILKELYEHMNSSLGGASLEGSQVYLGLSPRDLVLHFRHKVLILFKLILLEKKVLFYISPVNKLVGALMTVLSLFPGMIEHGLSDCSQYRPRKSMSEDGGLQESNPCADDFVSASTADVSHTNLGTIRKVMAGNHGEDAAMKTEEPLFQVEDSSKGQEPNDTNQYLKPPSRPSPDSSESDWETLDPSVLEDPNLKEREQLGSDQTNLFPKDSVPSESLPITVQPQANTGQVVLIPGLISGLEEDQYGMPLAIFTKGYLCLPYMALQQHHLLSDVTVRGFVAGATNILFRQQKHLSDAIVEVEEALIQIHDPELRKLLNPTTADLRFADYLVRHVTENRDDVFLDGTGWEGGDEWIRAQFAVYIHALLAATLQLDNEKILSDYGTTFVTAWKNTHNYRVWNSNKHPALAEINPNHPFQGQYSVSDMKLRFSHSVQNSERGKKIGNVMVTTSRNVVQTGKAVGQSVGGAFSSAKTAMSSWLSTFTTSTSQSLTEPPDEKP
UniProt Q12981: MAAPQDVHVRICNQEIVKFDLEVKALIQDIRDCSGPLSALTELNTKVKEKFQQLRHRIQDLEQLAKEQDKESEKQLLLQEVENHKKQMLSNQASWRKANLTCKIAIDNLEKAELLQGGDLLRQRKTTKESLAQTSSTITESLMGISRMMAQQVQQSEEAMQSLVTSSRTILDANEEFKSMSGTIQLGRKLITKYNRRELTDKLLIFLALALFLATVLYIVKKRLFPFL
UniProt Q7Z569: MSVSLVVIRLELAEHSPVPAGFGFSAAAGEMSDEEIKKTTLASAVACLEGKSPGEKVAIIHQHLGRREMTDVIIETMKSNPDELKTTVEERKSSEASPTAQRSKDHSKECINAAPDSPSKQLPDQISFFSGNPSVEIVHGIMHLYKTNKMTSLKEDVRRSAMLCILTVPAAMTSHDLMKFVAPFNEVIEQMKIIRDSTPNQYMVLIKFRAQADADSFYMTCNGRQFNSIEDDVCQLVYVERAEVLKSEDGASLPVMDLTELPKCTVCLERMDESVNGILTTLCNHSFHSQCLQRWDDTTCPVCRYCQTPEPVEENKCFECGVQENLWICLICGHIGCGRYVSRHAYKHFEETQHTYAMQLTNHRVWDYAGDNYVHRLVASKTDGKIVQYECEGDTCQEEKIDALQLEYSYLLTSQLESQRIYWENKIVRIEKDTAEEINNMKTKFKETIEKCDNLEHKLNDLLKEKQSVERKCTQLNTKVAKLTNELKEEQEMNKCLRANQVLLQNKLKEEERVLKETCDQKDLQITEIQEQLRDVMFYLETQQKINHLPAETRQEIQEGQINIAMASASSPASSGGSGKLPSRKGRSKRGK
UniProt O94766: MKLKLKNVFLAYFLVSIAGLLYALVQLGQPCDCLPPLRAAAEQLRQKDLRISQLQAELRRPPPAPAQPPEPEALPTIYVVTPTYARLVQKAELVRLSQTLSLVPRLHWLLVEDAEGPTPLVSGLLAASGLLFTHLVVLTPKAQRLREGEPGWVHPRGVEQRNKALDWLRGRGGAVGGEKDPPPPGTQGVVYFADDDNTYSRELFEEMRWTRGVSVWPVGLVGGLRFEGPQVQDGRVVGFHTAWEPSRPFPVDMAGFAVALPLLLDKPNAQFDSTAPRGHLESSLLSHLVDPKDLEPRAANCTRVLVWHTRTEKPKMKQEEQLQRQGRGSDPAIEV
UniProt Q86UU0: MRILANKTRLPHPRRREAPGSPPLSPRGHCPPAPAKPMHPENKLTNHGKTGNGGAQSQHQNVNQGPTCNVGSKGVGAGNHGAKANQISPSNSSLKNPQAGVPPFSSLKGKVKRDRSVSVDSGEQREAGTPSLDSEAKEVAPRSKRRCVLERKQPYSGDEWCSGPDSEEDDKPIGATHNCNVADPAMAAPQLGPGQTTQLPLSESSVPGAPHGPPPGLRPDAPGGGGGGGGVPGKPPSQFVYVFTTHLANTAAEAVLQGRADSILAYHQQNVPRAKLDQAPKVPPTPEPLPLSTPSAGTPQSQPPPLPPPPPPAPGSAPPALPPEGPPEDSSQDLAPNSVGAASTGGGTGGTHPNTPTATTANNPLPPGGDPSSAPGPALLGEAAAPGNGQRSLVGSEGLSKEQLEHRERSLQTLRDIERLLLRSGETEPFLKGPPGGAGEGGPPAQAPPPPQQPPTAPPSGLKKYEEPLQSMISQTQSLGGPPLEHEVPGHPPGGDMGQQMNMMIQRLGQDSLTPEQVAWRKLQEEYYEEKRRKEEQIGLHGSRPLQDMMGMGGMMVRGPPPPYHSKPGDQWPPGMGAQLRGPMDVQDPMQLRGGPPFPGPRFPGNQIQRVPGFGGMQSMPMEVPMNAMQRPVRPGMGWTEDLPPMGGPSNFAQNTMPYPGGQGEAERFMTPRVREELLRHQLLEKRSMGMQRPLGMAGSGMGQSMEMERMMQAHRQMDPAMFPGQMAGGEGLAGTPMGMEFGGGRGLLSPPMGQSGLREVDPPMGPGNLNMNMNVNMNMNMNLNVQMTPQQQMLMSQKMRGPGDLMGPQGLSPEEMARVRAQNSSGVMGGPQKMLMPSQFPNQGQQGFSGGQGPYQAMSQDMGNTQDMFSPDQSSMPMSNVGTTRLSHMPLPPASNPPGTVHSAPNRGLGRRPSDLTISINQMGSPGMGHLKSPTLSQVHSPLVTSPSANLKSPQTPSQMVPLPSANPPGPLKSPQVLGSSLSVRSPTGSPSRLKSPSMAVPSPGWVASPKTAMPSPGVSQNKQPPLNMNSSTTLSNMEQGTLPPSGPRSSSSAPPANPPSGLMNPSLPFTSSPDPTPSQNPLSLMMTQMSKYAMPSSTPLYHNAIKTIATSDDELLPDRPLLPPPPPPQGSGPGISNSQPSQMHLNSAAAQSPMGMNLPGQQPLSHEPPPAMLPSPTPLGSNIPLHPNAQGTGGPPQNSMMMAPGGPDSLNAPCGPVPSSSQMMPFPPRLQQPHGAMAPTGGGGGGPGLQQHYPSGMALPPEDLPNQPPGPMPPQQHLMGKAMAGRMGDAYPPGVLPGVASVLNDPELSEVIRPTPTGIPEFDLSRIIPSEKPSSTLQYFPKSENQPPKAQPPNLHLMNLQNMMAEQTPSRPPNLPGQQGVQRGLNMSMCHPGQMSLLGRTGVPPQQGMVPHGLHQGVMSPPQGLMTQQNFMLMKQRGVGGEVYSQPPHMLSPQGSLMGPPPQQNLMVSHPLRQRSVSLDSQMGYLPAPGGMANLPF
UniProt P15291: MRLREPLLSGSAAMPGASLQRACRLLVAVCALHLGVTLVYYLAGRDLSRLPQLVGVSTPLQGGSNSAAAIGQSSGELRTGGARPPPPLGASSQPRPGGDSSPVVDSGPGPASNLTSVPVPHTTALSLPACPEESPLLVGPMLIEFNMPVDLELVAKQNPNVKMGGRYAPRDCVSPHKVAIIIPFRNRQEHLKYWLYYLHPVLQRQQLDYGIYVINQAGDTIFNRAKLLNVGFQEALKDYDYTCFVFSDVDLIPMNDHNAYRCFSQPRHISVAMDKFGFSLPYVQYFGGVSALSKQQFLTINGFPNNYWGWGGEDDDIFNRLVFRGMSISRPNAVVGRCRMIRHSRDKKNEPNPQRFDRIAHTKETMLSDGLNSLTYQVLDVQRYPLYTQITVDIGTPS
UniProt O60512: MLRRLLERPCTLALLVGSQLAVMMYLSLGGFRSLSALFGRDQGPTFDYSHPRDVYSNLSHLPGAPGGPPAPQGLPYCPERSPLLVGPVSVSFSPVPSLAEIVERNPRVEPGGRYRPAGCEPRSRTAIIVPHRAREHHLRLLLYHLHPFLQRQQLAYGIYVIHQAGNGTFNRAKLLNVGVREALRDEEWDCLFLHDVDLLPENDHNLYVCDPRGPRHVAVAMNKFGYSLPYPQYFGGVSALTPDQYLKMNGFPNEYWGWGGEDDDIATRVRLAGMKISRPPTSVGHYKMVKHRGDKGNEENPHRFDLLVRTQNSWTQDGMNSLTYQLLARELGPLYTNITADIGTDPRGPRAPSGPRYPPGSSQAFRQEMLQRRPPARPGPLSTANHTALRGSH
UniProt Q9UBB4: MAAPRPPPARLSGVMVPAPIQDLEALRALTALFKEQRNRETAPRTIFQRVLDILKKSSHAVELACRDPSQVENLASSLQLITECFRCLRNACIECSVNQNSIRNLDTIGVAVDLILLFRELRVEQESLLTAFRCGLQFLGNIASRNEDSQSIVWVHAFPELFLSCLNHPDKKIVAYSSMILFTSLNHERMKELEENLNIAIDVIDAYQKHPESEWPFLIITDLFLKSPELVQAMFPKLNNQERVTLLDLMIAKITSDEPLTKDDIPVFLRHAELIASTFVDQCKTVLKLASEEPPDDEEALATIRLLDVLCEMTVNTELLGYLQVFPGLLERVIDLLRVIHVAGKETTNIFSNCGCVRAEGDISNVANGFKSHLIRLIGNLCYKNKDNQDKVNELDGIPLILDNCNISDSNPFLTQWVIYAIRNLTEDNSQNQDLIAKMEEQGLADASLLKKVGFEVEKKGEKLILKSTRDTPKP
UniProt P46736, whole entry, looked up: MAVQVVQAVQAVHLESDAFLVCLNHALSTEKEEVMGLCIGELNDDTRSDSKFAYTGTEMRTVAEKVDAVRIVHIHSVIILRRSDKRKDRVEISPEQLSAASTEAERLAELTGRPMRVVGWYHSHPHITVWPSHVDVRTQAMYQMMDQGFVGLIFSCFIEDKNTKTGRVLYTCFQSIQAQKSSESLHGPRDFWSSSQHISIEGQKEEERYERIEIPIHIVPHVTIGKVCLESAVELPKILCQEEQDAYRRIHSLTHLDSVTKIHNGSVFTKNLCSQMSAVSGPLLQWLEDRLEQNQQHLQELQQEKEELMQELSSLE
UniProt Q9UQB8: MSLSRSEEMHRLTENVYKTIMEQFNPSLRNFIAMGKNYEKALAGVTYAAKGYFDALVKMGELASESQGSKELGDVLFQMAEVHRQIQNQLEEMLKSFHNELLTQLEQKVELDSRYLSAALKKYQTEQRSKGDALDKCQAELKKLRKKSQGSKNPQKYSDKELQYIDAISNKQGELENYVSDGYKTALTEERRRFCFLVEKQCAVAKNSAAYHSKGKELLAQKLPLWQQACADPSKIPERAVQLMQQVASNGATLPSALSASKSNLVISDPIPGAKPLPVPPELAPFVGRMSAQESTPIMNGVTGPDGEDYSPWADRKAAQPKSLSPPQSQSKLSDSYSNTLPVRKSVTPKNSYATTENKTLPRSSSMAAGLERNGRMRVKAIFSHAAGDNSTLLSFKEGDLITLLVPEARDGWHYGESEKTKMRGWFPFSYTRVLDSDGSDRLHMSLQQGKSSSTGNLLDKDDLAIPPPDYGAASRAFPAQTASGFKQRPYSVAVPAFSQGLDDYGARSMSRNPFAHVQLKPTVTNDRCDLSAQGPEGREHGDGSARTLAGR

[1] = compound: Cc1cccc(CC(=O)N2CCc3c2ccc(-c2cn(C)c4ncnc(N)c24)c3F)n1
Summary of the method: as §1

nilotinib = compound: Cc1cn(-c2cc(NC(=O)c3ccc(C)c(Nc4nccc(-c5cccnc5)n4)c3)cc(C(F)(F)F)c2)cn1 [nilotinib]
Summary of the method: as §1

[2] = compound: Cc1nc(Nc2n[nH]c3c2CN(C(=O)N[C@H](CN(C)C)c2ccccc2)C3(C)C)c2sccc2n1
Summary of the method: as §1

dasatinib = compound: Cc1nc(Nc2ncc(C(=O)Nc3c(C)cccc3Cl)s2)cc(N2CCN(CCO)CC2)n1 [dasatinib]
Summary of the method: as §1

[3] = compound: Cc1ncc(-c2ccnc(Nc3ccc(S(C)(=O)=O)cc3)n2)n1C(C)C
Summary of the method: as §1

[4] = compound: Cn1cc(-c2ccc3c(c2)CCN3C(=O)Cc2cccc(C(F)(F)F)c2)c2c(N)ncnc21
Summary of the method: as §1

[5] = compound: Cn1cc(-c2ccc3nnc(C(F)(F)c4ccc5ncccc5c4)n3n2)cn1
Summary of the method: as §1

tipifarnib = compound: Cn1cncc1[C@@](N)(c1ccc(Cl)cc1)c1ccc2c(c1)c(-c1cccc(Cl)c1)cc(=O)n2C [tipifarnib]
Summary of the method: as §1

mubritinib = compound: FC(F)(F)c1ccc(/C=C/c2nc(COc3ccc(CCCCn4ccnn4)cc3)co2)cc1 [mubritinib]
Summary of the method: as §1

[6] = compound: NC(=O)Nc1cc(-c2cccc(F)c2)sc1C(=O)N[C@H]1CCCNC1
Summary of the method: as §1

[7] = compound: NC(=O)c1cnc(N[C@@H]2CCCC[C@@H]2N)nc1Nc1cccc(-n2nccn2)c1
Summary of the method: as §1

[8] = compound: NC1(c2ccc(-c3nc4ccn5c(=O)[nH]nc5c4cc3-c3ccccc3)cc2)CCC1
Summary of the method: as §1

[9] = compound: NCC(=O)Nc1ccc(-n2nc(C(F)(F)F)cc2-c2ccc3c(ccc4ccccc43)c2)cc1
Summary of the method: as §1

entinostat = compound: Nc1ccccc1NC(=O)c1ccc(CNC(=O)OCc2cccnc2)cc1 [entinostat]
Summary of the method: as §1

vorinostat = compound: O=C(CCCCCCC(=O)Nc1ccccc1)NO [vorinostat]
Summary of the method: as §1

citarinostat = compound: O=C(CCCCCCNC(=O)c1cnc(N(c2ccccc2)c2ccccc2Cl)nc1)NO [citarinostat]
Summary of the method: as §1

silmitasertib = compound: O=C(O)c1ccc2c(c1)nc(Nc1cccc(Cl)c1)c1ccncc12 [silmitasertib]
Summary of the method: as §1

[10] = compound: O=C1NC(=O)C(c2cnc3ccccn23)=C1c1cn2c3c(cc(F)cc13)CN(C(=O)N1CCCCC1)CC2
Summary of the method: as §1

[11] = compound: c1cc(OCCN2CCCCC2)cc(-c2n[nH]c3ccc(-c4nnc[nH]4)cc23)c1
Summary of the method: as §1

Row | Target | log2 fold change (bafetinib) | log2 fold change [1] | log2 fold change (nilotinib) | log2 fold change [2] | log2 fold change (dasatinib) | log2 fold change [3] | log2 fold change [4] | log2 fold change [5] | log2 fold change (tipifarnib) | log2 fold change (mubritinib) | log2 fold change [6] | log2 fold change [7] | log2 fold change [8] | log2 fold change [9] | log2 fold change (entinostat) | log2 fold change (vorinostat) | log2 fold change (citarinostat) | log2 fold change (silmitasertib) | log2 fold change [10] | log2 fold change [11]
1 | BNIP2 (UniProt J3KN59) | inactive: -0.232 | inactive: 0.027 | inactive: -0.006 | inactive: -0.004 | inactive: -0.005 | inactive: 0.022 | inactive: 0.017 | inactive: 0.001 | inactive: 0.038 | inactive: 0.063 | inactive: 0.006 | inactive: -0.015 | inactive: -0.04 | inactive: -0.054 | inactive: 0.006 | inactive: 0 | inactive: 0.073 | inactive: -0.045 | inactive: -0.165 | inactive: -0.11
2 | BAG3 (UniProt O95817) | inactive: -0.097 | inactive: -0.163 | inactive: 0.043 | inactive: -0.017 | inactive: 0.038 | inactive: -0.018 | inactive: 0.012 | inactive: -0.001 | inactive: 0.036 | inactive: 0.004 | inactive: -0.016 | inactive: -0.013 | inactive: -0.019 | inactive: -0.007 | inactive: -0.003 | inactive: -0.102 | inactive: -0.021 | inactive: 0.008 | inactive: -0.079 | inactive: 0.01
3 | BAD (UniProt Q92934) | inactive: -0.151 | inactive: -0.046 | inactive: 0.034 | inactive: 0.009 | inactive: 0.092 | inactive: -0.069 | inactive: 0.077 | inactive: 0.076 | inactive: -0.005 | inactive: -0.046 | inactive: -0.243 | inactive: 0.033 | inactive: 0.101 | inactive: -0.018 | inactive: -0.122 | inactive: 0.011 | inactive: -0.064 | inactive: -0.071 | inactive: 0.131 | inactive: -0.072
4 | BMS1 (UniProt Q14692) | inactive: 0.248 | inactive: 0.006 | inactive: -0.087 | inactive: 0.051 | inactive: 0.028 | inactive: 0.042 | inactive: -0.255 | inactive: -0.092 | inactive: 0.122 | inactive: -0.144 | inactive: 0.029 | inactive: 0.046 | inactive: 0.159 | inactive: 0.093 | inactive: -0.058 | inactive: -0.021 | inactive: -0.104 | inactive: 0.13 | inactive: 0.191 | inactive: -0.218
5 | AVL9 (UniProt Q8NBF6) | inactive: -0.096 | inactive: 0.02 | inactive: -0.011 | inactive: -0.056 | inactive: -0.111 | inactive: -0.01 | inactive: 0.059 | inactive: 0.041 | inactive: -0.043 | inactive: 0.074 | inactive: 0.006 | inactive: -0.128 | inactive: -0.228 | inactive: -0.039 | inactive: 0.003 | inactive: 0.064 | inactive: 0.086 | inactive: -0.019 | inactive: -0.007 | inactive: -0.104
6 | BNIP1 (UniProt Q12981) | inactive: -0.095 | inactive: 0.032 | inactive: -0.002 | inactive: -0.004 | inactive: -0.047 | inactive: -0.009 | inactive: 0.027 | inactive: 0.058 | inactive: 0.002 | inactive: 0.046 | inactive: -0.014 | inactive: -0.111 | inactive: -0.043 | inactive: -0.06 | inactive: 0.004 | inactive: 0.047 | inactive: 0.019 | inactive: 0.015 | inactive: -0.03 | inactive: -0.026
7 | BRAP (UniProt Q7Z569) | inactive: 0.026 | inactive: 0.017 | inactive: -0.087 | inactive: -0.186 | inactive: -0.097 | inactive: -0.116 | inactive: -0.067 | inactive: -0.066 | inactive: -0.04 | inactive: 0.056 | inactive: 0.056 | inactive: -0.063 | inactive: -0.113 | inactive: -0.015 | inactive: 0.003 | inactive: 0.069 | inactive: 0.037 | inactive: 0.073 | inactive: 0.124 | inactive: 0.064
8 | B3GAT3 (UniProt O94766) | inactive: -0.077 | inactive: -0.022 | inactive: -0.006 | inactive: -0.017 | inactive: 0.034 | inactive: -0.002 | inactive: 0.081 | inactive: -0.062 | inactive: 0.006 | inactive: 0.037 | inactive: -0.015 | inactive: 0.039 | inactive: -0.031 | inactive: 0.191 | inactive: -0.089 | inactive: 0.014 | inactive: 0.123 | inactive: 0.002 | inactive: 0.022 | inactive: -0.129
9 | BCL9L (UniProt Q86UU0) | inactive: 0.043 | inactive: 0 | inactive: -0.046 | inactive: -0.064 | inactive: 0.018 | inactive: 0.053 | inactive: -0.013 | inactive: -0.031 | inactive: 0.014 | inactive: 0.026 | inactive: 0.037 | inactive: -0.009 | inactive: 0.03 | inactive: 0.021 | inactive: -0.002 | inactive: 0.012 | inactive: 0.017 | inactive: -0.038 | inactive: -0.045 | active: 0.241
10 | BCKDK (UniProt O14874) | inactive: -0.006 | inactive: -0.067 | inactive: -0.093 | inactive: 0.058 | inactive: 0.142 | inactive: 0.041 | inactive: -0.073 | inactive: -0.058 | inactive: 0 | inactive: -0.006 | inactive: -0.03 | inactive: -0.02 | inactive: 0.072 | inactive: 0.046 | inactive: -0.031 | inactive: 0.025 | inactive: 0 | inactive: 0.018 | inactive: -0.027 | inactive: -0.096
11 | B4GALT1 (UniProt P15291) | inactive: -0.062 | inactive: 0.009 | inactive: 0.066 | inactive: -0.025 | inactive: -0.083 | inactive: 0.021 | inactive: -0.005 | inactive: 0.04 | inactive: 0.153 | inactive: 0.029 | inactive: 0.053 | inactive: 0.114 | inactive: -0.279 | inactive: 0.199 | inactive: -0.01 | inactive: -0.01 | inactive: 0 | inactive: 0 | inactive: -0.039 | inactive: -0.027
12 | B4GALT3 (UniProt O60512) | inactive: -0.069 | inactive: 0.024 | inactive: 0.045 | inactive: 0.151 | inactive: -0.04 | inactive: 0.103 | inactive: -0.023 | inactive: 0.091 | inactive: 0.091 | inactive: -0.05 | inactive: -0.089 | inactive: -0.05 | inactive: -0.013 | inactive: -0.042 | inactive: -0.034 | inactive: 0.067 | inactive: -0.116 | inactive: -0.051 | inactive: 0.044 | inactive: -0.025
13 | ATXN10 (UniProt Q9UBB4) | inactive: -0.043 | inactive: 0.067 | inactive: -0.059 | inactive: 0.001 | inactive: 0.02 | inactive: -0.035 | inactive: 0.025 | inactive: 0.02 | inactive: -0.005 | inactive: 0.07 | inactive: -0.051 | inactive: -0.023 | inactive: -0.097 | inactive: 0 | inactive: 0.002 | inactive: 0.044 | inactive: 0.048 | inactive: -0.035 | inactive: -0.006 | inactive: -0.042
14 | BRCC3 (UniProt P46736) | inactive: 0.013 | inactive: -0.055 | inactive: 0.013 | inactive: 0.014 | inactive: 0.066 | inactive: -0.009 | inactive: 0.002 | inactive: 0.009 | inactive: 0.026 | inactive: 0.013 | inactive: 0.03 | inactive: -0.028 | inactive: -0.013 | inactive: 0.003 | inactive: -0.057 | inactive: -0.036 | inactive: -0.004 | inactive: -0.014 | inactive: 0.037 | inactive: -0.058
15 | BAIAP2 (UniProt Q9UQB8) | inactive: -0.009 | inactive: 0.032 | inactive: -0.061 | inactive: -0.05 | inactive: -0.066 | inactive: -0.038 | inactive: 0.03 | inactive: -0.032 | inactive: -0.035 | inactive: 0.06 | active: -0.229 | inactive: -0.083 | inactive: -0.086 | inactive: -0.014 | inactive: 0.019 | inactive: 0.082 | inactive: 0.031 | inactive: -0.016 | inactive: 0.04 | inactive: -0.034
16 | ATXN2 (UniProt Q99700) | inactive: -0.071 | inactive: -0.018 | inactive: 0.037 | inactive: -0.01 | inactive: 0 | inactive: -0.05 | inactive: -0.037 | inactive: -0.007 | inactive: -0.019 | inactive: 0.028 | inactive: -0.027 | inactive: 0.082 | inactive: -0.031 | inactive: -0.03 | inactive: -0.036 | inactive: 0.036 | inactive: 0.005 | inactive: 0 | inactive: -0.036 | inactive: -0.097

Copied from the list.
Entry of BRCC3 (UniProt P46736) under log2 fold change (bafetinib): inactive: 0.013
Entry of BAD (UniProt Q92934) under log2 fold change (citarinostat): inactive: -0.064

— the supplement of paper PMC10849652
